Experimental data published in US20240115541A1, “METHOD FOR TREATING CEREBRAL APOPLEXY AND HYPERBILIRUBINEMIA BY COMPOUND FOR INHIBITING COMBINATION OF BILIRUBIN AND TRPM2 CHANNEL” (SHANGHAI SIXTH PEOPLE'S HOSPITAL, priority 2022, published 2024).
Where a name gives a salt, the structure may show the parent alone. At least one structure is not confirmed: it was looked up by name or label, or the drawing left a doubt.

Sequences of proteins named here, by UniProt entry; tags and fusion partners are left off.
UniProt O94759, whole entry: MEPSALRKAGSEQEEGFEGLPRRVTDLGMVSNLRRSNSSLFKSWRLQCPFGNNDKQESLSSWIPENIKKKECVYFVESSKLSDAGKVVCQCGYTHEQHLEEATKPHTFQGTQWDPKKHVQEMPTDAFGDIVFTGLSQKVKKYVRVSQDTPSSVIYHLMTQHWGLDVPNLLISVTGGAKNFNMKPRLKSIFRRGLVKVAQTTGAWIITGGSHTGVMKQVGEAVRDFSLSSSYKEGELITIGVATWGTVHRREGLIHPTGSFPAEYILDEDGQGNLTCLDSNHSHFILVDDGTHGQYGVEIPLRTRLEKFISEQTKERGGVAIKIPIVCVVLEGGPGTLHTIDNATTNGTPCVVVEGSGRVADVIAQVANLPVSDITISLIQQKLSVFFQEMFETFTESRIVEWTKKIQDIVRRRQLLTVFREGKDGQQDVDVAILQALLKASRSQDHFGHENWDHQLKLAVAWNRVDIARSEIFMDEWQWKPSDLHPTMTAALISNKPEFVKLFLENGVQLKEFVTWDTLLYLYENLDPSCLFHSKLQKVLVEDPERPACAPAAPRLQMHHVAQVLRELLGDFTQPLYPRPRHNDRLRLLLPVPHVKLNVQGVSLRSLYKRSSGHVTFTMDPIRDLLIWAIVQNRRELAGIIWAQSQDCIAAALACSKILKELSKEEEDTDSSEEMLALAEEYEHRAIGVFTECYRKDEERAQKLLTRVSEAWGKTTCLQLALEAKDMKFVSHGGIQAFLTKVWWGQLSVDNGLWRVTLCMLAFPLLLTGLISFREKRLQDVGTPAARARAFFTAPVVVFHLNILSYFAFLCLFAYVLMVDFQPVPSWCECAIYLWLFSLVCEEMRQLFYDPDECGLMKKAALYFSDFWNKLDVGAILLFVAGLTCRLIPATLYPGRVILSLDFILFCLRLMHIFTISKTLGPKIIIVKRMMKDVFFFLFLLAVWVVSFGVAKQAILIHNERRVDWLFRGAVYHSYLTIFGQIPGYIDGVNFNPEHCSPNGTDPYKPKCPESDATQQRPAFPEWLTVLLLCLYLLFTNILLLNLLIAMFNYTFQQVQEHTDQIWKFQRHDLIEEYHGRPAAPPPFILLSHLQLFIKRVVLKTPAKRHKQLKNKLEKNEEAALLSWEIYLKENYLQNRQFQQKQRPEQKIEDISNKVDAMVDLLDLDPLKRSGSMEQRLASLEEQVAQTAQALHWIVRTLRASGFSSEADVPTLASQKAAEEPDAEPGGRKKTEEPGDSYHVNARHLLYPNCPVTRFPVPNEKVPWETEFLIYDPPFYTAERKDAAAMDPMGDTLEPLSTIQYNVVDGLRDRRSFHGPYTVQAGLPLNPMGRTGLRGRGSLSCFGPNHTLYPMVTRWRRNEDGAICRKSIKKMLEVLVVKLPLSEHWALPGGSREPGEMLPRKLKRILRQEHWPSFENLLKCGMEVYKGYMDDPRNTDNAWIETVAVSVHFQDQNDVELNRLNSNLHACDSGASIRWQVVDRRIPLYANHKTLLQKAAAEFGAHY
UniProt O94759, whole entry K928A/D1069A: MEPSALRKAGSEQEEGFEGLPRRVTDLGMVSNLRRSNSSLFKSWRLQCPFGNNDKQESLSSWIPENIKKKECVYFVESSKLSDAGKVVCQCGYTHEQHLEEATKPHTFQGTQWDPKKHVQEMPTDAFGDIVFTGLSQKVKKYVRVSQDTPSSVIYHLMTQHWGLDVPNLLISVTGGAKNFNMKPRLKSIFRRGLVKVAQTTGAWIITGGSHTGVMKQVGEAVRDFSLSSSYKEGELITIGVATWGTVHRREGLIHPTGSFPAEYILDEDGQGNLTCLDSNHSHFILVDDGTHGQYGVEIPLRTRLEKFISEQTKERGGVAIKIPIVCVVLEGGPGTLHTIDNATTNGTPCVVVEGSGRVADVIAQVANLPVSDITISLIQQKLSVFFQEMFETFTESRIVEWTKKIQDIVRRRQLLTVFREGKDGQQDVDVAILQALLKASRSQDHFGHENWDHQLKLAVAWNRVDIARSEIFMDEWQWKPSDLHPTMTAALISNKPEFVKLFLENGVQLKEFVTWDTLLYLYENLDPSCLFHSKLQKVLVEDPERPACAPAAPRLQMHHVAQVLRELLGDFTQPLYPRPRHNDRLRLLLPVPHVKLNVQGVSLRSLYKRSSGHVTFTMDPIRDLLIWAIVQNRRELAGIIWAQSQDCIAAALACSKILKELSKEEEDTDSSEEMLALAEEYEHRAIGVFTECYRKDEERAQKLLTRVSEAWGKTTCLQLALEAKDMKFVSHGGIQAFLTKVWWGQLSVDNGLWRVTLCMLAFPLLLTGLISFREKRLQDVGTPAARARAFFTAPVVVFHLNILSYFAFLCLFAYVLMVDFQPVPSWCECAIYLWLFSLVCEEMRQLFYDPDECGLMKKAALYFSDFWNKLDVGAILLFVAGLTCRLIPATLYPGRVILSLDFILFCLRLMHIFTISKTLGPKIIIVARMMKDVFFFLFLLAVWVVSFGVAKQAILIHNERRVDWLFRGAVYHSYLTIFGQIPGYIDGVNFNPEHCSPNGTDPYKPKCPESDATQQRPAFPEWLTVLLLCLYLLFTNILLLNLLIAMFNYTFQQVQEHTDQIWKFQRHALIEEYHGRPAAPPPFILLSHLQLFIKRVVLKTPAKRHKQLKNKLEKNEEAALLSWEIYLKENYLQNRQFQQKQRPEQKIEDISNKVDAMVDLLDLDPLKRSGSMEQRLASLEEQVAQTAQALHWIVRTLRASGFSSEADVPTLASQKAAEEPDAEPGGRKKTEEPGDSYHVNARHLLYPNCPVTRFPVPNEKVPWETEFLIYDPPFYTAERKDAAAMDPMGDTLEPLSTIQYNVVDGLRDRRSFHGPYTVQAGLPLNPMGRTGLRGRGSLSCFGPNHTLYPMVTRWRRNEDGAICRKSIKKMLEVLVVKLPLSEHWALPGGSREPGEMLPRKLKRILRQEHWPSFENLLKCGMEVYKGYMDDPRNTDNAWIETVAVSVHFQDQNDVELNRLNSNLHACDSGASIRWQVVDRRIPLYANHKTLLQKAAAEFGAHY

Tests used:
[1] = target: T1, human TRPM2 channel (hTRPM2) (Homo sapiens, UniProt O94759); assay: Whole-cell patch-clamp recording, HEK293 cells expressing hTRPM2; assay type: cell-based
T1 construct: expressed in transfected cells; host or cells: HEK293 cells with tetracycline-inducible expression

[2] = target: T1, human TRPM2 channel (hTRPM2); assay: Single-channel (outside-out) patch-clamp recording, HEK-hTRPM2 cells; assay type: cell-based
Protocol: 1. Extracellular solution (in mM): 145 NaCl, 5.6 KCl, 2 MgCl2, 1.2 CaCl2, 10 HEPES, 10 glucose and pH adjusted to 7.4 by NaOH (290-320 mOsm).
2. Pipette solution contains (in mM): 147 NaCl, 1 MgCl2, 1 EGTA and 10 HEPES with pH 7.4 and osmolality 290-320 mOsm.
(§1) 3. Cell culture and transfection: Human embryonic kidney 293 (HEK293) cells with tetracycline-inducible expression of human TRPM2 channel (hTRPM2) were cultured in a mixed medium containing DMEM/F-12 and 10% fetal bovine serum as well as blasticidin (50 μg/ml) and zeocin (0.4 mg/ml). The expression of hTRPM2 was induced by substituting […] (1 μg/ml) 24-48 hours before use. TRPM2 channel mutants were transiently expressed in HEK293T cells by transfection with using Lipofectamine 3000. Briefly, HEK293T cells were transiently transfected with cDNAs encoding the mutant hTRPM2 channel. The cDNA for GFP was co-transfected as a marker for identification of the transfected cells for electrophysiological experiments 16-24 hours after transfection. All the cells were seeded on 96-well coverslips (3×3 mm) and cultured at 37° C. under a humidified atmosphere containing 5% CO2.
4. Whole-cell and ingle-channel patch-clamp recording: the coverslips were placed in a culture dish (35×35 mm, Sorfa) containing HEPES based extracellular solution (ECS) and recorded by patch-clamp technique. Cells were visualized by using the phase-contrast mode of an inverted microscope and the patch pipette was positioned on the cells using a motorized micromanipulator under the microscope. The transfected cells were voltage-clamped at 0 mV and subjected to voltage ramps from −100 mV to +100 mV (500 ms duration) every 5 s. The basal ramp current (i.e., the trace when the leak current is stable after membrane rupture) before channel activation were used for leak subtraction of all subsequent ramp currents. Each coverslip was recorded only once with different drug exposures. Single-channel recordings were carried out under outside-out configuration, using pipettes with resistance of 6-8 MΩ. The excised patches were voltage-clamped from −80 mV to +80 mV (in 20 mV increasement) to generate the current-voltage (I-V) relationship of single channel currents from which their main conductance was calculated from the slope by linear regression of the mean current amplitude at different potentials.

[3] = target: T2, K928A/D1069A double mutant TRPM2 channel (Homo sapiens, UniProt O94759, D1069A/K928A); assay: Whole-cell patch-clamp recording, K928A/D1069A double mutant in HEK293T cells; assay type: cell-based; details: bilirubin 9 μM
T2 construct: expressed in transfected cells; host or cells: HEK293T cells, Lipofectamine 3000, GFP cDNA co-transfected as a separate marker
Protocol: as §1, with “All the cells were seeded on 96-well coverslips (3×3 mm) and cultured at 37° C. under a humidified atmosphere containing 5% CO2.” left out
4. Whole-cell and ingle-channel patch-clamp recording: the coverslips were placed in a culture dish (35×35 mm, Sorfa) containing HEPES based extracellular solution (ECS) and recorded by patch-clamp technique. […] Each coverslip was recorded only once with different drug exposures. […] The excised patches were voltage-clamped from −80 mV to +80 mV (in 20 mV increasement) to generate the current-voltage (I-V) relationship of single channel currents from which their main conductance was calculated from the slope by linear regression of the mean current amplitude at different potentials. […]

[4] = system: transient middle cerebral artery occlusion (tMCAO) animal model; assay: tMCAO model, cerebral infarct volume by TTC staining; assay type: in vivo, mice; details: for infarct volume: bilirubin 50 μg/g intraperitoneally vs saline, 24 hours after tMCAO

| SMILES | activation of TRPM2 currents ([1]; BDS as agonist) | magnitude of TRPM2 currents evoked by voltage ramps (−100 to +100 mV) ([1]; bilirubin 9 μM) | opening probability (Po) ([2]; bilirubin 300 nM) | single-channel current amplitude ([2]; bilirubin 300 nM, at −40 mV) [pA] | single channel openings ([2]; bilirubin 300 nM, membrane patches from induced HEK-hTRPM2 cells) | single-channel slope conductance ([2]; bilirubin-activated, −80 mV to +80 mV, linear regression) [pS] | activation of K928A/D1069A double mutant currents [3] | exacerbated ischemic brain injury by bilirubin (infarct volume) ([4]; D1066A KI mice, tMCAO model) | infarct volume ([4]; Trpm2+/+ mice with tMCAO) | infarct volume ([4]; Trpm2−/− mice with tMCAO) |
| --- | --- | --- | --- | --- | --- | --- | --- | --- | --- | --- |
| C=CC1=C(C)/C(=C/c2[nH]c(Cc3[nH]c(/C=C4\NC(=O)C(C)=C4C=C)c(C)c3CCC(=O)O)c(CCC(=O)O)c2C)NC1=O [BDS, bilirubin disodium salt] | activated | – | – | – | – | – | – | – | – | – |
| C=CC1=C(C)/C(=C/c2[nH]c(Cc3[nH]c(/C=C4\NC(=O)C(C)=C4C=C)c(C)c3CCC(=O)O)c(CCC(=O)O)c2C)NC1=O [bilirubin] | – | increased the magnitude of the TRPM2 currents | significantly increased | −2.02±0.05 | elicited single channel openings | 76.29±7.85 | completely lost its ability to activate | completely ablated | increased the infarct volume | did not change |
